# Measurements from US20220017620A1.
# Residue numbers refer to the chain shown, from its start. No constants are given. Whether binding was seen depends on the method and setting. Binding calls can cover weak binding; strength is not graded here.
# B1: P1G2 full-length IgG1 antibody (antibody, V domains shown)
# VH: QVQLQQSGAEVKKPGSSVKVSCKASGGTFSSYAISWVRQAPGQGLEWMGRIIPILGIANYAQKFQGRVTITADKSTSTAYMELSSLRSEDTAVYYCAVNYYDSSGYYSDYWGQGTLVTVSS
# VL: SYELTQPPSASGSPGQSVTISCTGTSSDVGGYNYVSWYQQHPGKAPRLMIYGVSQRPSGVPDRFSGSKSGNTASLTVSGLQAEDEADYYCSSYANNNYVFGTGTKVTVL
# B2: P7F10 full-length IgG1 antibody (antibody, V domains shown)
# VH: QVQLQQSGGGLVQPGGSLRLSCAASGFTFSSYPMSWVRQAPGKGLEWVSVISGSGGSTFYADSVKGRFTISRDNSKNTLYLQVNSLRAEDTAVYYCAKDGRTLSGMDVWGQGTTVTVSS
# VL: QPVLTQPPSASGTPGQRVTISCSGSSSNIGSNPVNWYQQLPGTAPKLLIYNNNQRPSGVPDRFSGSKSGTSGSLAISGLQSEDEAHYYCAAWDVSLKEVFGGGTKVTVL
# B3: P2E5 full-length IgG1 antibody (antibody, V domains shown)
# VH: QVTLKESGGGLVQPGGSLRLSCAASGFTFSNSYMTWVRQAPGMGLEWVASMKPDGSVKHYVDSVKGRFTISRDNTKNSLDLQMNSLRAEDTAVYYCSSYDTRWGWFDPWGEGTLVTVSS
# VL: QTVVTQEPSFSVSPGGTVTLTCGLNSGSVSTSYFPSWYQQTPGQAPRTLIYNTNTRSSGVPDRFSGSILGNKAALTITGAQADDESDYYCLLYMDSGPHWVFGGGTKLTVL
# B4: P1D1 full-length IgG1 antibody (antibody, V domains shown)
# VH: QVQLVQSGAEVKKPGESLKISCKGSGYSFTSYWIGWVRQMPGKGLEWMGIIYPGDSDTRYSPSFQGQVTISADKSISTAYLQWSSLKASDTAMYYCARRSVAGLDYWGQGTLVTVSS
# VL: KTVVTQPPSASGTPGQRVTISCSGSSSNIGSKYVYWYQQLPGTAPRLLIYRNNQRPSGVPDRFSGSKSGTSASLAISGLRSEDESDYYCASWDDRLKGYAFGTGTKVTVL
# B5: P2E3 full-length IgG1 antibody (antibody, V domains shown)
# VH: B4 VH with V101R, A102E, L104F, Y106P
# VL: QAVLTQPSSASGTPGQRVTMSCSGAASNIGKNFVYWYQQLPGRAPRLLISRNIQRPSEVPDRFSGSKSGTSASLAISGLQSEDEADYYCAAWDDSLNGFVFGTGTAVTVL
# B6: P9A12 full-length IgG1 antibody (antibody, V domains shown)
# VH: QVTLKESGGGLVQPGGSLRLSCAASGFTFSSYAMSWVRQAPGKGLEWVSAISGSGGSTYYADSVKGRFTISRDNSKNTLYLQMNSLRAEDTAVYYCARGAGIDAFDIWGQGTMVTVSS
# VL: QSALTQPASVSGSPGQSITISCTGTSSDVGAYNYVTWYQQYPGKAPKLMIYDVSERPSGVSNRFSGSKSGNTASLTISGLQAEDEADYYCSSFTSSISWVFGGGTKLTVL
# B7: P3H6 full-length IgG1 antibody (antibody, V domains shown)
# VH: QVQLVQSGAEVKKPGESLKISCKGSGYSFSNYWIGWVRQMPGKGLEWMGIIYPGDSDTRYSPSFQGQVTISADKSISTAYLQWSSLKASDTAMYYCARSRGYPTNYMDVWGRGTTVTVSS
# VL: QAVLTQPPSVSGAPRQRVTISCSGSSSNIGNNIVSWYQHLPGKAPRLLIYRERQRPSGVPDRFSGSKSGTSASLAISGLRSEDEADYYCATWDDSLNSWVFGGGTKLTVL
# Biological target: antigen B7-H3 (R&D)
# Assay: ELISA on B7-H3 protein
row,binding,Binder
1,binds,B1

# Biological target: antigen B7-H3 (R&D)
# Assay: ELISA, coated B7-H3 (R&D), IgG1 antibody
row,binding,Binder
1,binds,B2
2,binds,B1
3,binds,B3
4,binds,B4
5,binds,B6
6,binds,B7

row,Binder,binding
1,B5,no binding (tested: 2000 ng/ml (highest concentration))

# Biological target: antigen B7-H3 (R&D)
# Assay: ELISA on coated B7-H3
row,binding,Binder
1,binds,B2
2,binds,B6
3,binds,B7

# Biological target: antigen B7-H3 (R&D)
# Assay: ELISA on coated B7-H3 (R&D), detection with goat anti-human IgG (Fc)-HRP
row,binding,Binder
1,binds,B1
2,binds,B3
3,binds,B4
